{"source": "PubChem BioAssay AID2685", "about": "(National Center for Advancing Translational Sciences (NCATS), 2010)", "assay": "qHTS Assay for Lipid Storage Modulators in Drosophila S3 Cells;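 as to cell number change: cells counted by Cell Tracker Red CMTPX staining in the red channel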", "conditions": "BODIPY lipid droplet fluorescence, 18-24 h; for cell number change: measured here: cell count max response, cells fed with added oleic acid", "in_short": "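Laser-scanning cytometry quantifies lipid droplet accumulation (500–530 nm total intensity; droplet/cell object ratio) in oleic acid-fed (400 uM added) Drosophila S3 cells treated with a concentration series. 20 uM Triacsin C defined 100% inhibition.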", "key": {"[1]": {"conditions": "measured here: cell number channel AC50, cells fed with added oleic acid"}, "[2]": {"conditions": "measured here: lipid fluorescence (Fed channel) AC50, cells fed with added oleic acid"}}, "note": "The other results are listed elsewhere or left out. Shown are side measurements of this screen, not its main read-out; they come without a call. The list favours compounds with an active or inconclusive main result. The note in brackets gives the kind of curve behind each potency; many fits are weak.", "data": [{"smiles": "CCOc1ccccc1NC1c2ccccc2C(=O)N1Cc1ccco1", "note": "(stereo unspecified)", "values": [{"measurement": "cell number change", "value": 9.99, "unit": "%"}]}, {"smiles": "CCN(CC)C(=O)c1cnn(-c2ccccc2)c1NC(=O)c1ccco1", "values": [{"measurement": "cell number change", "value": -33.9, "unit": "%"}, {"measurement": "AC50", "setting": "[1]", "value": "8200 nM [falling, partial curve, poor fit]"}, {"measurement": "AC50", "setting": "[2]", "value": "3260 nM [falling, full curve]"}]}, {"smiles": "Cc1ccc(C)c(C(=O)COc2ncnc3ccccc23)c1", "values": [{"measurement": "cell number change", "value": 65.9, "unit": "%"}, {"measurement": "AC50", "setting": "[1]", "value": "1300 nM [rising, full curve]"}, {"measurement": "AC50", "setting": "[2]", "value": "731 nM [rising, full curve]"}]}, {"smiles": "CC(C)NC(=O)CC(=O)N/N=C/c1c(F)cccc1Cl", "values": [{"measurement": "cell number change", "value": 33.5, "unit": "%"}, {"measurement": "AC50", "setting": "[1]", "value": "1840 nM [rising, full curve, poor fit]"}]}, {"smiles": "Cc1cc(C)cc(Nc2nc(-c3ccc(S(=O)(=O)N4CCCC4)cc3)cs2)c1", "values": [{"measurement": "cell number change", "value": -1.1, "unit": "%"}]}, {"smiles": "Cc1n[nH]c(C)c1CCCCOc1ccccc1[N+](=O)[O-]", "values": [{"measurement": "cell number change", "value": 1.23, "unit": "%"}]}, {"smiles": "Cc1cccc(N(CC(=O)Nc2c(C)n(C)n(-c3ccccc3)c2=O)S(C)(=O)=O)c1C", "values": [{"measurement": "cell number change", "value": 15.2, "unit": "%"}]}, {"smiles": "COc1ccc(CCN2CC(C(=O)N3CCC(OC)CC3)CCC2=O)cc1", "note": "(stereo unspecified)", "values": [{"measurement": "AC50", "setting": "[2]", "value": "461 nM [rising, partial curve]"}]}, {"smiles": "O=C(N/N=C/c1ccc([N+](=O)[O-])o1)c1cn(-c2ccccc2)nc1-c1ccccc1", "values": [{"measurement": "cell number change", "value": -2.26, "unit": "%"}, {"measurement": "AC50", "setting": "[2]", "value": "206 nM [rising, full curve, poor fit]"}]}, {"smiles": "Cc1ccc(C2CN(C)C3(C(=O)Nc4ccccc43)C23COc2ccccc2C3=O)cc1", "note": "(stereo unspecified)", "values": [{"measurement": "cell number change", "value": -36.3, "unit": "%"}, {"measurement": "AC50", "setting": "[1]", "value": "25900 nM [falling, single point]"}, {"measurement": "AC50", "setting": "[2]", "value": "32600 nM [falling, single point]"}]}, {"smiles": "CCOC(=O)c1cc(NC(=O)Nc2ccccc2OC)c(C)nc1C", "values": [{"measurement": "cell number change", "value": 13.5, "unit": "%"}, {"measurement": "AC50", "setting": "[1]", "value": "92 nM [rising, full curve, poor fit]"}, {"measurement": "AC50", "setting": "[2]", "value": "259 nM [rising, partial curve, poor fit]"}]}, {"smiles": "CCC(=O)c1ccc(OCC(=O)OCC(=O)N2c3ccccc3NC(=O)C2(C)C)cc1", "values": [{"measurement": "cell number change", "value": -39, "unit": "%"}, {"measurement": "AC50", "setting": "[1]", "value": "4610 nM [falling, partial curve, poor fit]"}, {"measurement": "AC50", "setting": "[2]", "value": "1160 nM [falling, partial curve, poor fit]"}]}, {"smiles": "COc1ccc(S(=O)(=O)N2CCN(C(=O)NCc3ccc(OC)c(OC)c3)CC2)cc1", "values": [{"measurement": "cell number change", "value": 17.1, "unit": "%"}, {"measurement": "AC50", "setting": "[2]", "value": "29100 nM [rising, single point]"}]}, {"smiles": "CC1=C(C(=O)OCc2ccccc2)C(c2ccccc2[N+](=O)[O-])NC(=O)N1C", "note": "(stereo unspecified)", "values": [{"measurement": "AC50", "setting": "[2]", "value": "6510 nM [rising, single point]"}]}, {"smiles": "O=C(CSc1ncccc1-c1nc2ccccc2[nH]1)N1CCN(c2ccccc2F)CC1", "values": [{"measurement": "AC50", "setting": "[2]", "value": "820 nM [rising, partial curve]"}]}, {"smiles": "CC(C)(C)C(=O)O/N=C1\\CCS(=O)(=O)c2sccc21", "values": [{"measurement": "cell number change", "value": -44.5, "unit": "%"}, {"measurement": "AC50", "setting": "[1]", "value": "13000 nM [falling, partial curve, poor fit]"}]}, {"smiles": "CN(c1ccc(C(=O)Nc2cccnc2)cc1)S(=O)(=O)c1ccc(Cl)cc1", "values": [{"measurement": "cell number change", "value": -19.8, "unit": "%"}, {"measurement": "AC50", "setting": "[2]", "value": "1640 nM [falling, partial curve, poor fit]"}]}, {"smiles": "COc1ccccc1C(=O)Nc1nnc(-c2ccccc2)s1", "values": [{"measurement": "cell number change", "value": -17.5, "unit": "%"}, {"measurement": "AC50", "setting": "[2]", "value": "2060 nM [falling, single point]"}]}, {"smiles": "CCN(CC)C(=O)CCSc1nnc(-c2ccncc2)o1", "values": [{"measurement": "cell number change", "value": 5.73, "unit": "%"}, {"measurement": "AC50", "setting": "[2]", "value": "651 nM [falling, full curve, poor fit]"}]}, {"smiles": "CN1CCN(S(=O)(=O)c2cccc(C(=O)Nc3sccc3C#N)c2)CC1", "values": [{"measurement": "cell number change", "value": 4.15, "unit": "%"}]}, {"smiles": "COc1ccc(C2C(C#N)=C(N)OC(C(C)(C)C)=C2C#N)cc1OC", "note": "(stereo unspecified)", "values": [{"measurement": "cell number change", "value": -5.02, "unit": "%"}, {"measurement": "AC50", "setting": "[2]", "value": "231 nM [rising, full curve, poor fit]"}]}, {"smiles": "CCOC(=O)CN1NC2(CCCC(C)C2)NC1=S", "note": "(stereo unspecified)", "values": [{"measurement": "cell number change", "value": -146, "unit": "%"}, {"measurement": "AC50", "setting": "[1]", "value": "29100 nM [falling, single point]"}, {"measurement": "AC50", "setting": "[2]", "value": "731 nM [falling, single point]"}]}, {"smiles": "Cc1ccc(N(C(=O)c2snc(C(N)=O)c2N)C(C(=O)NCC2CCCO2)c2ccc(C)o2)c(C)c1", "note": "(stereo unspecified)", "values": [{"measurement": "cell number change", "value": -33.3, "unit": "%"}, {"measurement": "AC50", "setting": "[1]", "value": "731 nM [falling, full curve, poor fit]"}, {"measurement": "AC50", "setting": "[2]", "value": "29100 nM [rising, single point]"}]}, {"smiles": "CC1CCCC(NC(=O)c2cccc(S(=O)(=O)NCc3ccccc3)c2)C1C", "note": "(stereo unspecified)", "values": [{"measurement": "cell number change", "value": -22.5, "unit": "%"}, {"measurement": "AC50", "setting": "[2]", "value": "5.8 nM [falling, full curve, poor fit]"}]}, {"smiles": "COc1ccc(CCNC(=O)CCCCCNc2nc(=S)[nH]c3ccccc23)cc1OC", "values": [{"measurement": "cell number change", "value": -37.3, "unit": "%"}, {"measurement": "AC50", "setting": "[1]", "value": "13000 nM [falling, single point]"}, {"measurement": "AC50", "setting": "[2]", "value": "7310 nM [falling, partial curve]"}]}, {"smiles": "O=C1Nc2ccc(Cl)cc2C(C#CC2CC2)(C(F)(F)F)O1", "note": "(stereo unspecified)", "values": [{"measurement": "AC50", "setting": "[2]", "value": "82 nM [falling, full curve, poor fit]"}]}, {"smiles": "CCOc1ccccc1NC(=O)NNS(=O)(=O)c1cc(C)ccc1C", "values": [{"measurement": "AC50", "setting": "[2]", "value": "29100 nM [rising, single point]"}]}, {"smiles": "O=S(=O)(NCc1csc(-c2ccccc2)n1)c1ccc(Cl)s1", "values": [{"measurement": "cell number change", "value": -21.1, "unit": "%"}, {"measurement": "AC50", "setting": "[2]", "value": "10300 nM [falling, partial curve, poor fit]"}]}, {"smiles": "CC1CCN(C(=O)CN(c2ccc3c(c2)OCCO3)S(=O)(=O)c2ccccc2)CC1", "values": [{"measurement": "cell number change", "value": 18.9, "unit": "%"}, {"measurement": "AC50", "setting": "[2]", "value": "6510 nM [rising, single point]"}]}, {"smiles": "COc1cccc(-n2c(SCC(=O)N3CCOCC3)nnc2-c2c[nH]c3ccccc23)c1", "values": [{"measurement": "cell number change", "value": -20.1, "unit": "%"}, {"measurement": "AC50", "setting": "[2]", "value": "20600 nM [rising, single point]"}]}, {"smiles": "CC(C)C(=O)NC(c1ccc(Cl)cc1Cl)c1ccc2cccnc2c1O", "note": "(stereo unspecified)", "values": [{"measurement": "cell number change", "value": -40.5, "unit": "%"}, {"measurement": "AC50", "setting": "[1]", "value": "16400 nM [falling, partial curve]"}]}, {"smiles": "O=C1NC2(CCCCC2)C(=O)N1CCN1C(=O)c2ccccc2C1=O", "values": [{"measurement": "cell number change", "value": -35.3, "unit": "%"}, {"measurement": "AC50", "setting": "[1]", "value": "146 nM [rising, full curve, poor fit]"}]}, {"smiles": "O=C1CCC([N+](=O)[O-])C(c2ccc(Cl)cc2Cl)N1", "note": "(stereo unspecified)", "values": [{"measurement": "cell number change", "value": -33.6, "unit": "%"}, {"measurement": "AC50", "setting": "[1]", "value": "411 nM [falling, full curve, poor fit]"}, {"measurement": "AC50", "setting": "[2]", "value": "23100 nM [falling, partial curve]"}]}, {"smiles": "COc1cccc(C(=O)OCC(=O)c2c[nH]c3ccccc23)c1OC", "values": [{"measurement": "cell number change", "value": 38.5, "unit": "%"}, {"measurement": "AC50", "setting": "[1]", "value": "20600 nM [rising, partial curve]"}, {"measurement": "AC50", "setting": "[2]", "value": "651 nM [falling, full curve]"}]}, {"smiles": "COc1ccc(Nc2nc(N/N=C/c3ccc(N(C)C)cc3)nc(C)c2[N+](=O)[O-])cc1", "values": [{"measurement": "cell number change", "value": -34.7, "unit": "%"}, {"measurement": "AC50", "setting": "[1]", "value": "16400 nM [falling, single point]"}, {"measurement": "AC50", "setting": "[2]", "value": "1160 nM [rising, partial curve]"}]}]}
